PubChem BioAssay AID1259306 – Sanger Institute | 2017
Test: 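Kinase-wide siRNA screen for partners of targeted drugs in colorectal cancer cells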 (primary screen). System: human SNU-C5 colorectal cancer cells. Knock-down reagent: siRNA pool against human genes. Treatment: DMSO vehicle alone, or one anchor drug: BYL719 at 1 µM, cetuximab at 5 µg/ml or trametinib at 10 nM, given 24 h into the assay. Read-out: 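Replicate-averaged viability against non-targeting pool control, given as fraction and robust z-score; separate synergy scores for BYL719, cetuximab and trametinib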. Direction: robust z-score, knock-down alone and viability, knock-down alone: higher = more viable cells; synergy score with BYL719: higher = stronger synthetic lethality with BYL719; synergy score with cetuximab: higher = stronger synthetic lethality with cetuximab; synergy score with trametinib: higher = stronger synthetic lethality with trametinib. Rule for the call: 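Essential if knock-down without drug gives a robust z-score under -3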. Meaning of the calls: active = essential (knock-down alone); inactive = no change alone.
In all, the deposit lists 794 reagents; shown is an unselected part. 11 of all reagents (1.4%) were called active. 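Calls reflect knock-down alone; synergy scores play no part, so knock-downs synergising with a drug can be called no change.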 A number with no mark means an inactive call. Viability is capped at 1. Not stated in the record: the amount of reagent, the time to read-out.

"robust z-score, knock-down alone","viability, knock-down alone",synergy score with BYL719,synergy score with cetuximab,synergy score with trametinib,target gene
-1.84,0.61,-0.135,-0.233,-0.0563,MAP4K3
0.989,1,0.0458,0,0.0915,TGFBR1
0.989,1,0.1,0.0874,-0.107,ERBB2
0.119,0.88,0.0415,0.149,-0.036,AK5
0.204,0.892,0.306,-0.0334,0.061,TSSK3
-0.321,0.819,-0.091,-0.17,-0.127,MECOM
0.204,0.892,-0.0969,-0.108,-0.0636,PRPS2
-1.31,0.683,-0.0352,-0.00199,-0.23,RPS6KC1
-2.34,0.541,-0.00525,0.0827,-0.246,CDC42BPA
-0.148,0.843,-0.000569,0.0331,-0.192,RBKS
0.798,0.974,-0.0263,-0.0124,-0.256,ARAF
-0.773,0.757,-0.0377,0.168,-0.0823,IKBKE
0.531,0.937,0.133,-0.0632,-0.0546,HCK
0.78,0.971,0.0232,0.00819,-0.0538,MAP3K13
0.989,1,0.0621,0.0383,-0.0188,LMTK1
-0.396,0.809,-0.0402,0,-0.0338,TJP2
-2.08,0.577,-0.216,-0.144,-0.26,FGFR2
0.989,1,0.268,0.191,0.00982,UCK2
-1.64,0.638,-0.225,0.0616,-0.242,ALPK3
0.893,0.987,0.135,0.0373,0.124,AXIN2
